Measurements: paper PMC10601554 (Protein Science : A Publication of the Protein Society, 2023)
These are yes or no findings as the source states them, for the method shown. For some assays here: Tags and fused reporters may be left off the sequences shown.

Legend:
[1] = target: RBP‐TruncII_(N‐Strep) (second-generation C-terminal half of T. maritima RBP, residues 156–310) (Thermotoga maritima) (UniProt Q9X053); assay: SEC-MALS; single purified proteins, and RBP‐N and RBP‐Trunc purified one by one and mixed in an equimolar ratio; Superdex 75 Increase 10/300 GL, 10 mM sodium phosphate, 50 mM sodium chloride, 0.02% sodium azide, pH 7.8, room temperature, 0.8 mL min^-1; both purified
[2] = target: RBP‐TruncII_(N‐His) (second-generation C-terminal half of T. maritima RBP, residues 156–310, His6 tag) (Thermotoga maritima) (UniProt Q9X053); assay: as above

| binding [1] | binding [2] | Binder |
| --- | --- | --- |
| no binding | – | RBP‐TruncII_(N‐Strep) (second-generation C-terminal half of T. maritima RBP, residues 156–310) (domain or fragment, UniProt Q9X053 156-310) DAKEIPYAELLGILSAQPTWDRSNGFHSVVDQYPEFKMVAQQSAEFDRDTAYKVTEQILQAHPEIKAIWCGNDAMALGAMKACEAAGRTDIYIFGFDGAEDVINAIKEGKQIVATIMQFPKLMARLAVEWADQYLRGERSFPEIVPVTVELVTRE |
| – | no binding | RBP‐TruncII_(N‐His) (second-generation C-terminal half of T. maritima RBP, residues 156–310, His6 tag) (domain or fragment, UniProt Q9X053 156-310) DAKEIPYAELLGILSAQPTWDRSNGFHSVVDQYPEFKMVAQQSAEFDRDTAYKVTEQILQAHPEIKAIWCGNDAMALGAMKACEAAGRTDIYIFGFDGAEDVINAIKEGKQIVATIMQFPKLMARLAVEWADQYLRGERSFPEIVPVTVELVTRE |
